No constants are given. Whether binding was seen depends on the method and setting. In cells and extracts the contact can be indirect.

The chains behind the UniProt entries cited, without tags or fusion partners. Residues count along the entry.
UniProt P01589, residues 22-272: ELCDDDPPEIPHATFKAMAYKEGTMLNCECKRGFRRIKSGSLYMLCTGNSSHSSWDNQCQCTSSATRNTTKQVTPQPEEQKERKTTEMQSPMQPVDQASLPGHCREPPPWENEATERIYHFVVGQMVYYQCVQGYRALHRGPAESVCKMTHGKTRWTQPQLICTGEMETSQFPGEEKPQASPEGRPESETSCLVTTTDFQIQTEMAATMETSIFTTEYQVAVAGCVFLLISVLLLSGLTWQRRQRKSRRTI
UniProt P01732, residues 22-235: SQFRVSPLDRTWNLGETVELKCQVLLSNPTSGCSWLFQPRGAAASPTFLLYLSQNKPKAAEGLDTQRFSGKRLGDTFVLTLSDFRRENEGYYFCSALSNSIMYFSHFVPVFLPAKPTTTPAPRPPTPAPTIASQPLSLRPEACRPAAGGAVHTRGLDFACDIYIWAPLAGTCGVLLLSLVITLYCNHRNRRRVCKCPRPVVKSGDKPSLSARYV
UniProt Q92973: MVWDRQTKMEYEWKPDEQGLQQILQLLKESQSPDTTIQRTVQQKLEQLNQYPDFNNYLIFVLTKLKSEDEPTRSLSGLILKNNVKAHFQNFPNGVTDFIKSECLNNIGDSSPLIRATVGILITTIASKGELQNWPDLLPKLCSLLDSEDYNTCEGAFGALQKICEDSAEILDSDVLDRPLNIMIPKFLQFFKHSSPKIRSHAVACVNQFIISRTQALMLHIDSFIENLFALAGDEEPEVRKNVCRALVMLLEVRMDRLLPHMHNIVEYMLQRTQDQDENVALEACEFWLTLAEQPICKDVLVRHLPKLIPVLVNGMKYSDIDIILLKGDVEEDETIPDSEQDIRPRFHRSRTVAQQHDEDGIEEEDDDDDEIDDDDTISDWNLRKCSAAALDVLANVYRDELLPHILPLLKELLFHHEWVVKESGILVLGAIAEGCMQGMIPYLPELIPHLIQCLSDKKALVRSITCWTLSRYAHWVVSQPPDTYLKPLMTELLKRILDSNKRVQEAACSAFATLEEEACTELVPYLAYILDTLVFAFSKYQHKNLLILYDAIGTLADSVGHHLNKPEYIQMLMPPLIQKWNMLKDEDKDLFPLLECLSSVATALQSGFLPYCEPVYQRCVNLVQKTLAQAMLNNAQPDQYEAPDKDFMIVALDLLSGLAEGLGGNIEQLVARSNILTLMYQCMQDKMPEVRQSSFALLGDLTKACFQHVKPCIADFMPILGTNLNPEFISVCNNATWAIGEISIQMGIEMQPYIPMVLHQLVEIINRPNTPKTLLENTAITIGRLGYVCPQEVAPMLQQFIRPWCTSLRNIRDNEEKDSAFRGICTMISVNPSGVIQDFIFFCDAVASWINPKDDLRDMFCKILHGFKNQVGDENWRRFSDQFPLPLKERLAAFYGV

The target in experiment [1] is IL2Rα–GFP (interleukin 2 receptor α subunit) (UniProt P01589). Briefly: co-IP; Fig. 3D,E: HEK293T lysates expressing GFP-tagged chimeras, immunoprecipitation with an anti-GFP antibody, blotted for endogenous TNPO1 and GFP.
The target in the next experiment is CD8a–GFP (UniProt P01732). Described as above.

On to “transportin1 (TNPO1), endogenous in HEK293T cells (from UniProt Q92973 1-898)”, for which the binding result (in experiment [1]; with CD8a–GFP) was “no binding” in each case.

For the origin of these results see publication PMC5087665.
